Results are given in words; binding and its absence hold for the method and conditions named. In cells and extracts the contact can be indirect. Binding can be weak; no strength is given.
How the values were obtained:
[1] = target: T1, CEP63 (human (endogenous in U87, 293T/17 and HeLa)) (UniProt Q96MT8); experiment: co-IP
T1 sequence: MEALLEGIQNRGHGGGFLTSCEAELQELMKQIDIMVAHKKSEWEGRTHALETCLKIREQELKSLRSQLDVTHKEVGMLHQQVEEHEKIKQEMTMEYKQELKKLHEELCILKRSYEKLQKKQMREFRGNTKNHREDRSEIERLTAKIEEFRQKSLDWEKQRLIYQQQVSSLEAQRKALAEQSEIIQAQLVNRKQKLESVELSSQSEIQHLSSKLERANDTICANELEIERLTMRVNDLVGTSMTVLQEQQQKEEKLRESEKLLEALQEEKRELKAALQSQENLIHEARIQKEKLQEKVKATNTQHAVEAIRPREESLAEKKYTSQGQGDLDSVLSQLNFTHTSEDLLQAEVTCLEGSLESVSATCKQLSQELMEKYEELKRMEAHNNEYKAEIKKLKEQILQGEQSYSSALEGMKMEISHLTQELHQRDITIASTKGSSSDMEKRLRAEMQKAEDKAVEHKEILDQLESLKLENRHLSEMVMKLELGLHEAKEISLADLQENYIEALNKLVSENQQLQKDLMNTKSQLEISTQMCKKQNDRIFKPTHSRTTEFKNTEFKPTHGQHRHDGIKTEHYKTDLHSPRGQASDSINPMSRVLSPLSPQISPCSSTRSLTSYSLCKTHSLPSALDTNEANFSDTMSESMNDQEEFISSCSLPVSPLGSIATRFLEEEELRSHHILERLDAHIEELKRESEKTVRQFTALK

[2] = target: Myc-tagged Brazilian ZIKV NS3 (Zika virus (Brazilian strain)); experiment: co-IP

ZIKV nonstructural protein NS3 (produced by infection with ZIKV strain PRVABC59) (Zika virus (strain PRVABC59))
binding [1]: binds

B1: CEP63 (protein, UniProt Q96MT8 1-703)
chain: MEALLEGIQNRGHGGGFLTSCEAELQELMKQIDIMVAHKKSEWEGRTHALETCLKIREQELKSLRSQLDVTHKEVGMLHQQVEEHEKIKQEMTMEYKQELKKLHEELCILKRSYEKLQKKQMREFRGNTKNHREDRSEIERLTAKIEEFRQKSLDWEKQRLIYQQQVSSLEAQRKALAEQSEIIQAQLVNRKQKLESVELSSQSEIQHLSSKLERANDTICANELEIERLTMRVNDLVGTSMTVLQEQQQKEEKLRESEKLLEALQEEKRELKAALQSQENLIHEARIQKEKLQEKVKATNTQHAVEAIRPREESLAEKKYTSQGQGDLDSVLSQLNFTHTSEDLLQAEVTCLEGSLESVSATCKQLSQELMEKYEELKRMEAHNNEYKAEIKKLKEQILQGEQSYSSALEGMKMEISHLTQELHQRDITIASTKGSSSDMEKRLRAEMQKAEDKAVEHKEILDQLESLKLENRHLSEMVMKLELGLHEAKEISLADLQENYIEALNKLVSENQQLQKDLMNTKSQLEISTQMCKKQNDRIFKPTHSRTTEFKNTEFKPTHGQHRHDGIKTEHYKTDLHSPRGQASDSINPMSRVLSPLSPQISPCSSTRSLTSYSLCKTHSLPSALDTNEANFSDTMSESMNDQEEFISSCSLPVSPLGSIATRFLEEEELRSHHILERLDAHIEELKRESEKTVRQFTALK
binding [2]: binds
